Experimental findings from the supplement of paper PMC9135407 are described below.

The test relates to primary human hepatic stellate cells (donor 1). In words: percent Bodipy-positive cells; higher = more lipid droplet accumulation. The note with it: 48 h.
The mark [1] stands for this setting: library stock concentration: 8 mM.
Where [2] appears, read: library stock concentration: 10 mM.
The mark [3] stands for this setting: library stock concentration: 1 mM.
The mark [4] stands for this setting: library stock concentration: 3.33 mM.
Where [5] appears, read: library stock concentration: 80 uM.
Setting [6] is: library stock concentration: 400 uM.
The mark [7] stands for this setting: library stock concentration: 2 mM.

Values joined by “and” are separate entries in the source; they are usually repeats but may differ in a detail not shown here. Equal values may be shown once. Where a name gives a salt, the structure may show the parent alone. ± gives the standard deviation of the averaged measurements. The list shows a part of the results. Part of the spread comes from offsets between plates or batches.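 Primary human stellate myofibroblasts activated in culture; inactivation shown by regained lipid droplets. Readout: fraction of Hoechst-counted cells exceeding a per-plate Bodipy threshold, duplicate wells, each plate with DMSO negative and nortriptyline positive controls. Hits: control-normalized score beyond the plate's top-tenth-percentile nortriptyline wells, or among its three best wells. Final well concentrations unstated.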

Turning to `O=C(O)c1cc(-c2ccc(F)cc2F)ccc1O` [Diflunisal], the “percent Bodipy-positive cells” value was found to be 24.4 ± 10%. In addition, the “percent Bodipy-positive cells” value under setting [1] was 7.89% and 1.95%. For the same molecule, under setting [2], the “percent Bodipy-positive cells” value was found to be 12.5 ± 5.1%.

For the molecule `CCCCC(CC)CNC(=N)NC(=N)NCCCCCCNC(=N)NC(=N)NCC(CC)CCCC` (stereo not drawn) [Alexidine dihydrochloride], the “percent Bodipy-positive cells” value worked out at 98.3 ± 2.5%.

In the case of `CC/C=C\C/C=C\C/C=C\C/C=C\C/C=C\CCCCCC(=O)O` [Docosapentaenoic Acid], the “percent Bodipy-positive cells” value under setting [3] worked out at 11.4 ± 4.3%.

With `CC/C=C\C/C=C\C/C=C\C/C=C\C/C=C\CCCCCC(=O)O` [Docosapentaenoic acid], the “percent Bodipy-positive cells” value under setting [3] was determined as 13.6 ± 6.8%.

In the case of `C=C(C)[C@@H]1CC=C(C(=O)O)CC1` [(-)-Perillic acid], the “percent Bodipy-positive cells” value under setting [2] is 15.8 ± 3%.

Regarding `C=C(C)[C@@H]1CC=C(C(=O)O)CC1` [Perillic acid (-)], the “percent Bodipy-positive cells” value under setting [2] was determined as 22.6 ± 4%.

Regarding `O=C1CCc2ccc(OCCCCN3CCN(c4cccc(Cl)c4Cl)CC3)cc2N1`, the “percent Bodipy-positive cells” value under setting [2] was found to be 85.3 ± 7.8%.

As to `COC(=O)[C@@H]1[C@H]2C[C@H]3c4[nH]c5ccccc5c4CCN3C[C@@H]2CC[C@@H]1O` [Yohimbine HCl], the “percent Bodipy-positive cells” value under setting [4] amounted to 9.13 ± 4.9% and the “percent Bodipy-positive cells” value under setting [2] amounted to 28.4 ± 1.5%.

For the molecule `COC(=O)[C@@H]1[C@H]2C[C@H]3c4[nH]c5ccccc5c4CCN3C[C@@H]2CC[C@@H]1O` [Yohimbine hydrochloride], the “percent Bodipy-positive cells” value worked out at 37.4 ± 20%. Also, the “percent Bodipy-positive cells” value (library stock concentration: 5.1 mM) came out at 19.6 ± 2.9%. The “percent Bodipy-positive cells” value under setting [2] is 30.6% and 34.9% and 34.5%.

For `C[C@]12C=CC(=O)C=C1CC[C@@H]1[C@@H]2[C@@H](O)C[C@@]2(C)[C@H]1CC[C@]2(O)C(=O)COC(=O)CCC(=O)O`, the “percent Bodipy-positive cells” value under setting [2] stood at 12.6 ± 2.8%.

For `CN(C)CCSSCCNC(=O)C1CCN(C(=O)CSc2ccc(Cl)cc2)CC1`, the “percent Bodipy-positive cells” value under setting [4] came out at 42.4 ± 17% and the “percent Bodipy-positive cells” value under setting [2] was determined as 32.6 ± 5.5%.

As to `Oc1c2ccccc2c2c3c(cccc13)N=N2`, the “percent Bodipy-positive cells” value was found to be 7.76 ± 3.3% under setting [2] and 18.9 ± 3.7% (library stock concentration: 22.7 mM).

In the case of `CC(C)C[C@H](NC(=O)[C@H]1O[C@@H]1C(=O)O)C(=O)NCCCCN=C(N)N`, the “percent Bodipy-positive cells” value runs as follows: under setting [4], 16.2 ± 1.7%; under setting [2], 38.8% and 57%.

With `CC1(C)NC(=O)N(c2ccc([N+](=O)[O-])c(C(F)(F)F)c2)C1=O` [Nilutamide], the “percent Bodipy-positive cells” value was 9 ± 2.3%. For the same molecule, the “percent Bodipy-positive cells” value (library stock concentration: 6.3 mM) was determined as 11.4 ± 1.6%.

Turning to `N[C@@H](CC(=O)Nc1ccc(Oc2cc(F)c(F)cc2Br)cc1)C(=O)O`, the “percent Bodipy-positive cells” value under setting [2] is 9.3 ± 1.2%.

As for `CN(C)Cc1ccc(-c2nc3cccc4c3n2CCNC4=O)cc1`, the “percent Bodipy-positive cells” value is 18.9 ± 1.8% under setting [4] and 67.5 ± 0.51% under setting [2].

Turning to `O=C(/C=C\n1cnc(-c2cc(C(F)(F)F)cc(C(F)(F)F)c2)n1)NNc1cnccn1`, the “percent Bodipy-positive cells” value came to 36.8 ± 8.8% under setting [4] and 70 ± 6.9% under setting [2].

On to `CCCCCCc1ccc(O)cc1O` [Hexylresorcinol], for which the “percent Bodipy-positive cells” value under setting [2] was determined as 22.1 ± 2.2%.

In the case of `Cc1[nH]c(/C=C2\C(=O)Nc3ccc(S(=O)(=O)N(C)c4cccc(Cl)c4)cc32)c(C)c1C(=O)N1CCN(C)CC1`, the “percent Bodipy-positive cells” value reads like this: under setting [5], 24.9 ± 0.8%; under setting [6], 34.3 ± 1.9%.

On to `Cc1nc(NC(=O)N2CCC[C@H]2C(N)=O)sc1-c1ccnc(C(C)(C)C(F)(F)F)c1`, for which the “percent Bodipy-positive cells” value reads like this: under setting [5], 4.09 ± 0.38%; under setting [6], 7.07 ± 2.4%; under setting [7], 6.32 ± 0.45%; under setting [4], 6.36 ± 3.6%; under setting [2], 17.1% and 11.4%.

With `CC(C)=CCC[C@](C)(O)C1CC=C(C)CC1` (stereo partly drawn) [Bisabolol], the “percent Bodipy-positive cells” value under setting [2] was determined as 27.9 ± 0.51%.

`CCCCc1oc2ccccc2c1C(=O)c1cc(I)c(OCCN(CC)CC)c(I)c1.Cl` [Amiodarone HCl]: the “percent Bodipy-positive cells” value under setting [2] was determined as 92 ± 1.5%.

On to `Nc1nc(=O)c2c([nH]1)NC[C@@H](CNc1ccc(C(=O)N[C@@H](CCC(=O)O)C(=O)O)cc1)N2C=O` [Folinic acid calcium salt], for which the “percent Bodipy-positive cells” value was 7.88 ± 4.8%.

`COc1ccc2cc([C@@H](C)C(=O)O)ccc2c1` [(R) -Naproxen sodium salt]: the “percent Bodipy-positive cells” value came out at 9.37 ± 2.2%.

For the molecule `CC(C)NCC(O)COc1cccc2ccccc12` (stereo not drawn) [Propranolol HCl], the “percent Bodipy-positive cells” value was found to be 31.4 ± 5.7% under setting [4] and 79.5 ± 13% under setting [2].

Consider `CC(C)NCC(O)COc1cccc2ccccc12` (stereo not drawn) [Propranolol hydrochloride], for which the “percent Bodipy-positive cells” value turned out to be 44 ± 5.8%. The “percent Bodipy-positive cells” value under setting [2] came to 51.55 ± 0.45%.

Take `CC(C)NCC(O)COc1cccc2ccccc12` (stereo not drawn) [Propranolol]: the “percent Bodipy-positive cells” value (library stock concentration: 7.7 mM) was found to be 49.4 ± 4%.

Consider `CC(C)NCC(O)COc1cccc2ccccc12` (stereo not drawn), for which the “percent Bodipy-positive cells” value under setting [2] was determined as 84.5 ± 2.4%.

With `Cn1cc(C2=C(c3ccc(Cl)cc3Cl)C(=O)NC2=O)c2ccccc21`, the “percent Bodipy-positive cells” value under setting [2] is 93.44 ± 0.44%.

Regarding `CCCCn1c(=O)c2c(ncn2CC(C)=O)n(CCCC)c1=O` [Denbufylline], for the setting “library stock concentration: 6.2 mM”, the “percent Bodipy-positive cells” value came to 7.18 ± 0.28%.

With `Nc1ncnc2c1c(-c1cnc3[nH]ccc3c1)nn2C1CCCC1`, the “percent Bodipy-positive cells” value runs as follows: under setting [4], 12.4 ± 1.1%; under setting [2], 49.1 ± 2.7%.

On to `Cc1c[nH]c(=O)n(CCCN2CCN(c3ccccc3OCC(F)(F)F)CC2)c1=O`, for which the “percent Bodipy-positive cells” value under setting [2] came out at 14.2 ± 0.8%.

For the molecule `CCCCC/C=C\C/C=C\C/C=C\C/C=C\CCCC(=O)O[C@H](COCCCCCCCCCCCCCCCC)COP(=O)([O-])OCC[N+](C)(C)C` [Arachidonoyl-PAF], the “percent Bodipy-positive cells” value under setting [3] was determined as 28.6 ± 20%.

On to `COc1cc(OC)cc(-c2cc3cnc(N)nc3nc2NC(=O)NC(C)(C)C)c1`, for which the “percent Bodipy-positive cells” value under setting [2] came out at 23.8 ± 1.7%.

For `COc1ccc2cc1Oc1ccc(cc1)C[C@H]1c3cc(c(OC)cc3CCN1C)Oc1c(OC)c(OC)cc3c1[C@H](C2)N(C)CC3` [Tetrandine], the “percent Bodipy-positive cells” value under setting [1] was found to be 100%.

In the case of `COc1ccc2cc1Oc1ccc(cc1)C[C@H]1c3cc(c(OC)cc3CCN1C)Oc1c(OC)c(OC)cc3c1[C@H](C2)N(C)CC3` [Tetrandrine], the “percent Bodipy-positive cells” value turned out to be 99.164 ± 0.069%. The “percent Bodipy-positive cells” value under setting [4] turned out to be 98.3 ± 1%. Besides, under setting [2], the “percent Bodipy-positive cells” value was 100%.

Consider `CCC=CCC=CCC=CCC=CCCCCCCC(=O)O` [.omega.-3 Arachidonic Acid], for which the “percent Bodipy-positive cells” value under setting [3] turned out to be 11 ± 2.7%.

With `CCCCC[C@H](O)/C=C/[C@H]1[C@H](O)CC(=O)[C@@H]1C/C=C/CCCC(=O)Oc1ccc(NC(C)=O)cc1` [Prostaglandin E2 p-acetamidophenyl ester], the “percent Bodipy-positive cells” value under setting [3] amounted to 18.4 ± 3.4%.

Take `CCC(=O)Nc1ccc2ncnc(Nc3cccc(Br)c3)c2c1`: the “percent Bodipy-positive cells” value under setting [4] came to 10.9 ± 0.12%.

With `Cc1coc2c1C(=O)C(=O)c1c-2ccc2c(C)cccc12` [Tanshinone I], the “percent Bodipy-positive cells” value is, setting by setting: under setting [4], 8.44 ± 0.81%; under setting [2], 29.5 ± 11%.

Regarding `C[C@@]12C[C@@]3(O)O[C@@H](O1)[C@]1(COC(=O)c4ccccc4)[C@H]3C[C@@]12O[C@@H]1O[C@H](CO)[C@@H](O)[C@H](O)[C@H]1O` [Paeoniflorin], the “percent Bodipy-positive cells” value is 16.9 ± 14% under setting [4] and 10.1 ± 0.79% under setting [2].

As to `COc1cc(Nc2nc3ccccc3nc2NS(=O)(=O)c2ccc(NC(=O)c3ccc(C)c(OC)c3)cc2)cc(OC)c1` [pseudoXL765], the “percent Bodipy-positive cells” value came out at 11.8 ± 2.2% under setting [5], 12.8 ± 7.7% under setting [6], 19.6 ± 7.9% under setting [7] and 41.8 ± 15% under setting [2].

Turning to `COc1cc(Nc2nc3ccccc3nc2NS(=O)(=O)c2ccc(NC(=O)c3ccc(C)c(OC)c3)cc2)cc(OC)c1`, the “percent Bodipy-positive cells” value by setting is: under setting [4], 11.9 ± 5.6%; under setting [2], 28 ± 3.9%.

As to `Cc1ccccc1-n1c(Cn2nc(-c3cccc(O)c3)c3c(N)ncnc32)nc2cccc(C)c2c1=O`, the “percent Bodipy-positive cells” value is 11.9 ± 2.6% under setting [6]; 17 ± 8.4% under setting [7]; 6.27 ± 1.1% under setting [4]; 15.2% and 21.6% under setting [2].

On to `CCC1=C(C)CN(C(=O)NCCc2ccc(S(=O)(=O)NC(=O)N[C@H]3CC[C@H](C)CC3)cc2)C1=O`, for which the “percent Bodipy-positive cells” value under setting [2] amounted to 13 ± 5.8%.

As for `CCC1=C(C)CN(C(=O)NCCc2ccc(S(=O)(=O)NC(=O)N[C@H]3CC[C@H](C)CC3)cc2)C1=O` [Glimepiride], the “percent Bodipy-positive cells” value turned out to be 10.91 ± 0.029%. Besides, the “percent Bodipy-positive cells” value under setting [4] is 7.07 ± 1.6%. For the same molecule, under setting [2], the “percent Bodipy-positive cells” value was 9.75% and 5.7%.
